This is one part of the list. Shown are side measurements of this screen, not its main read-out; they come without a call. Compounds called inactive in the main read-out are mostly missing here. The note in brackets gives the kind of curve behind each potency; many fits are weak.

The assay is described as follows: qHTS Assay for Lipid Storage Modulators in Drosophila S3 Cells.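 For cell number change: cells counted by Cell Tracker Red CMTPX staining in the red channel.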 The conditions noted are these: BODIPY lipid droplet fluorescence, 18-24 h; for cell number change: measured here: cell count max response, cells fed with added oleic acid. The essentials:
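Drosophila S3 cells loaded with oleic acid (400 uM, as added) and compounds at several concentrations; lipid droplets imaged by 488-nm laser-scanning cytometry, 500–530 nm intensity and object ratio to cell channel. Percent activity normalized to 20 uM Triacsin C.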
In general terms: In qHTS, concentration-response curves come from the screen itself.

[1] abbreviates: measured here: cell number channel AC50, cells fed with added oleic acid.
The mark [2] stands for this setting: measured here: lipid fluorescence (Fed channel) AC50, cells fed with added oleic acid.

By AC50 is commonly meant the midpoint of the concentration-response curve, whichever way the signal moves. Turning to `COc1ccc(CN2C(=O)c3cccnc3C2=O)cc1S(=O)(=O)N1CCCCC1C` (centres undefined), the cell number change is -4.2%. Further, the AC50 under setting [1] is 3.66 µM [falling, single point]. The AC50 under setting [2] is 2.06 µM [falling, partial curve].
For `N=c1n(Cc2ccc(Cl)cc2)c2ccccc2n1CC(O)COc1ccccc1` (centres undefined), the cell number change is -55.1%. Also, the AC50 under setting [1] is 29.1 µM [falling, partial curve, poor fit]. Further, the AC50 under setting [2] was 3.26 µM [falling, partial curve, poor fit].
`O=C(C1CCCN(S(=O)(=O)c2cccc3nsnc23)C1)N1CCN(c2ccccn2)CC1` (centres undefined): the AC50 reads like this: under setting [1], 3.66 µM [rising, partial curve, poor fit]; under setting [2], 2.91 µM [rising, partial curve].
Turning to `CC(C)c1ccc(NC(=O)COC(=O)c2cc(=O)[nH]c3ccccc23)cc1`, the cell number change was determined as 4.95%. Moreover, the AC50 under setting [2] is 2.31 µM [rising, full curve, poor fit].
Turning to `O=C(NC(=S)NCc1ccccc1)C1CC1`, the cell number change was -20.8%. The concentration at half-maximal activity (AC50) under setting [2] was 29.1 µM [falling, single point].
With `Cc1ccnc(N2CCC(C(=O)NNC(=O)COc3cccc4ccccc34)CC2)n1`, the cell number change came to 47.7%. Also, the AC50 under setting [1] was 29.1 µM [rising, single point]. For the same compound, under setting [2], the AC50 is 18.4 µM [rising, partial curve, poor fit].
Turning to `Cc1ccc(S(=O)(=O)NCC(=O)N2CCCC2)cc1`, the cell number change was determined as 1.1%. In addition, under setting [2], the half-maximal activity concentration (AC50) is 29.1 µM [falling, single point].
For the compound `O=C(O)c1cc(S(=O)(=O)Nc2cccc3ccccc23)c(Cl)cc1Cl`, the cell number change came out at 8.75%.
For `CCOC(=O)C1CCCN(CC(=O)Nc2c(C(=O)OC)[nH]c3ccc(Br)cc23)C1` (centres undefined), the cell number change was -30.4%. Also, under setting [1], the AC50 was 8.2 µM [falling, partial curve, poor fit]. The AC50 under setting [2] was 23.1 µM [falling, single point].
Turning to `N#Cc1nc(/C=C/c2ccccc2)oc1NCCCN1CCOCC1`, the cell number change is 70.4%. Further, the AC50 under setting [1] was 5.8 µM [rising, partial curve].
For `Cc1cccc(NC(=O)c2cc(Cl)sc2Cl)c1C`, the cell number change was 17.1%.
For `CCOc1cc(C2NC(=S)NC(C)=C2C(=O)Nc2ccccc2)ccc1O` (centres undefined), the cell number change was -14.1%. The AC50 under setting [2] is 32.6 µM [falling, single point].
Regarding `O=C(c1ccc2c(c1)OCO2)C1CCCN(Cc2cccc(C(F)(F)F)c2)C1` (centres undefined), the cell number change was found to be 43.8%. The AC50 under setting [1] is 29.1 µM [rising, single point]. In addition, the AC50 under setting [2] was 29.1 µM [rising, single point].
Turning to `CCCOC(=O)C1=C(C)NC2=C(C(=O)CC(C)(C)C2)C1c1ccc(N(C)C)cc1` (centres undefined), the AC50 was 5.8 µM [rising, single point] under setting [1] and 0.00411 µM [falling, full curve, poor fit] under setting [2].
For the compound `Cc1cc(C)n2nc(SCCOc3ccccc3F)nc2n1`, the AC50 under setting [2] was 0.116 µM [falling, full curve, poor fit].
For the compound `Cc1ccc(CNC(=O)C2CCCN(S(=O)(=O)c3cccnc3)C2)cc1` (centres undefined), the cell number change is -5.54%. Further, under setting [2], the AC50 is 0.146 µM [rising, full curve, poor fit].
`CCOc1ccc(C(=O)NCCc2cnc[nH]2)cc1`: the cell number change was -32.4%. For the same compound, under setting [1], the AC50 was 29.1 µM [falling, single point].
`CC1C(=O)NN=C1C(=O)N/N=C/c1ccco1` (centres undefined): the cell number change was -16.9%. Besides, the AC50 under setting [1] is 0.517 µM [rising, single point].
As to `COc1cccc(C2(O)CC(C(F)(F)F)=NN2C(=O)c2ccccn2)c1` (centres undefined), the cell number change is 15.2%. Also, the AC50 under setting [2] was 0.92 µM [rising, single point].
As for `COc1ccccc1CNC(=O)c1ccc(S(=O)(=O)N(C)C)cc1`, the cell number change is -53.1%. For the same compound, the AC50 under setting [1] was 0.164 µM [falling, full curve, poor fit].
As to `Cc1ccc(S(=O)(=O)N(C)CC(=O)N2CCCc3ccccc32)cc1`, the cell number change was -11.9%. In addition, the AC50 under setting [2] is 0.731 µM [falling, single point].
In the case of `CCOc1ccc2nc(SCC(=O)NCc3ccc(OC)cc3)[nH]c2c1`, under setting [2], the AC50 was 6.51 µM [rising, partial curve, poor fit].
As to `COc1ccc(/C=N/NC(N)=S)cc1OC(=O)c1cccc2ccccc12`, the cell number change came out at 23%.
For `Cc1cc2nc3c(=O)n(CCc4ccccc4)c(=O)[nH]c3nc2cc1N`, the AC50 under setting [2] was 29.1 µM [falling, single point].
`COc1ccc(NC(=O)CS(=O)CC(=O)Nc2ccc(-n3cnnn3)c(C)c2)cc1` (centres undefined): the cell number change came out at 4.17%.
For `COc1ccc(S(=O)(=O)N2CCCCCC2)cc1C(=O)N(C)CC(=O)Nc1cc(C)ccc1C`, the AC50 under setting [2] was 2.06 µM [rising, partial curve].
Turning to `O=C1O/C(=C\c2ccccc2)c2ccccc21`, the cell number change turned out to be 9.16%. Further, the AC50 under setting [2] was 20.6 µM [rising, partial curve].
Take `Cc1ccc(-c2cc(C(=O)N3CCN(c4ccc(F)cc4)CC3)c3ccccc3n2)o1`: the cell number change is 116%.
As to `COc1ccccc1C(=O)NNC(=O)c1cccc(Br)c1`, the cell number change amounted to 24.5%. Further, under setting [2], the AC50 was 29.1 µM [rising, single point].
As to `O=C(NNC1=C(C(=O)C(F)(F)F)CCC1)c1cccc(Cl)c1`, the cell number change was found to be 22%. For the same compound, the AC50 under setting [2] was 6.51 µM [rising, single point].
Regarding `CC(=O)Nc1ccc(/C=C/c2ccc3c([N+](=O)[O-])cccc3n2)cc1`, the AC50 under setting [2] was 0.731 µM [rising, single point].
On to `C=CCc1ccc(OCC(O)CN2CCCCC2)c(OC)c1` (centres undefined), for which the cell number change was 2.87%. In addition, the AC50 under setting [2] is 0.164 µM [falling, full curve, poor fit].
In the case of `Cc1ccc(OCC(=O)N/N=C/c2ccc([N+](=O)[O-])o2)cc1`, the cell number change is -53.8%. Besides, the AC50 under setting [1] was 23.1 µM [falling, single point].
For the compound `Cn1nc(-c2ccc(OCC(=O)Nc3ccccc3)cc2)c2ccccc2c1=O`, the cell number change is -10.6%. Moreover, under setting [2], the half-maximal activity concentration (AC50) was 0.651 µM [rising, single point].
As for `O=C(CCC(=O)N1CCN(c2ccc(F)cc2)CC1)N1CCN(c2ccc(F)cc2)CC1`, the cell number change was -1.68%.
With `COc1cccc(CCC(=O)Nc2cc3c(cc2C(=O)O)OCCCO3)c1OC`, the cell number change is -17%. For the same compound, the AC50 under setting [1] was 0.058 µM [falling, full curve, poor fit]. The AC50 under setting [2] was 6.51 µM [falling, full curve, poor fit].
As for `COc1ccc2cc(S(=O)(=O)N3CCCCCC3)ccc2c1`, the cell number change is -26.7%. Besides, the AC50 under setting [2] was 29.1 µM [falling, single point].
For `Cc1sc2nc(CN3CCCC3)nc(N3CCN(S(=O)(=O)c4cccc(F)c4)CC3)c2c1C`, the cell number change was 8.9%. For the same compound, the half-maximal activity concentration (AC50) under setting [2] was 5.8 µM [rising, full curve, poor fit].
As to `Cc1ccc(N2C(=O)S/C(=C/c3cn(C)c4ccccc34)C2=O)cc1`, the cell number change is 15.9%. Besides, the AC50 under setting [1] was 1.84 µM [rising, single point].
`CCOC(=O)c1ccc2nc(CCC(=O)N[C@H](C(=O)OC)C(C)C)c(=O)n(CC)c2c1`: the cell number change stood at 29.8%. Also, the AC50 under setting [1] is 4.11 µM [rising, single point].
Turning to `Cc1ccc(C(=O)c2c3ccc([N+](=O)[O-])cc3[n+]([O-])n2CCCC(N)=O)cc1`, the cell number change is -35.4%. Besides, under setting [1], the AC50 is 29.1 µM [falling, single point]. Moreover, under setting [2], the AC50 was 3.66 µM [falling, single point].
As to `CCc1nc(-c2ccccc2)c2ccccn12`, the cell number change is 5.17%. The AC50 under setting [2] is 0.731 µM [falling, single point].
Consider `COc1cc(/C=C2\SC(=Nc3ccc(O)cc3)NC2=O)cc(OC)c1OC`, for which the cell number change stood at 37.4%. Besides, the AC50 under setting [1] was 32.6 µM [rising, single point]. Moreover, the concentration at half-maximal activity (AC50) under setting [2] is 29.1 µM [rising, single point].
On to `O=C(NCc1ccc(F)cc1)C1CCN(S(=O)(=O)c2ccc(Cl)cc2)CC1`, for which the cell number change turned out to be 23.4%. Besides, the AC50 under setting [2] is 29.1 µM [falling, single point].
As to `Cc1ncc([N+](=O)[O-])n1CC(=O)Nc1ccc(F)c(F)c1`, the cell number change was 51.8%. Further, the AC50 under setting [1] is 20.6 µM [rising, single point].
In the case of `COc1cc(C(=O)OCc2nc3ccsc3c(=O)[nH]2)c([N+](=O)[O-])cc1OC`, the cell number change came to 11.1%. Also, under setting [2], the AC50 is 0.82 µM [rising, single point].
Regarding `O=C(CN1C(=O)CCSc2ccc(S(=O)(=O)N3CCCC3)cc21)NCc1ccccc1Cl`, the cell number change was 8.78%. Also, under setting [2], the AC50 is 14.6 µM [rising, partial curve, poor fit].
In the case of `Clc1ccc(-c2cccs2)nn1`, the cell number change was -4.21%. Moreover, the half-maximal activity concentration (AC50) under setting [2] was 0.13 µM [falling, full curve, poor fit].
Regarding `COC(=O)c1ccc(CSc2n[nH]c(-c3ccccc3)n2)o1`, the cell number change worked out at 3.5%. Under setting [1], the AC50 is 0.146 µM [falling, partial curve, poor fit]. Further, under setting [2], the AC50 was 0.411 µM [falling, full curve, poor fit].
Regarding `CCc1cc(C(=O)Nc2nnc(C3CC3)s2)sc1C`, the cell number change was -6.55%. Moreover, the AC50 under setting [2] was 20.6 µM [falling, single point].
Consider `CC(C)(c1ccccc1)c1ccc(OCC(O)CN2CCCC2)cc1` (centres undefined), for which the cell number change was found to be 22.5%. For the same compound, the AC50 under setting [2] is 0.517 µM [falling, single point].
For `Cc1ccc(CN(C(=O)c2ccccc2[N+](=O)[O-])C2CCS(=O)(=O)C2)o1` (centres undefined), the cell number change was -12.9%. For the same compound, the AC50 under setting [1] is 1.84 µM [rising, partial curve, poor fit]. The AC50 under setting [2] was 29.1 µM [rising, single point].
Take `Cc1cc(C)n2cc(COc3ccc4ccccc4c3)nc2n1`: the cell number change was 5.01%. Under setting [2], the AC50 was 3.26 µM [rising, full curve].
Regarding `O=C(Oc1ccc(C(=S)N2CCOCC2)cc1)c1ccc(F)cc1`, the cell number change is -22%.
Turning to `COc1cc(OC)cc(C(=O)Nc2ccc(S(=O)(=O)Nc3cc(C)nc(C)n3)cc2)c1`, the cell number change is 14.2%. Further, the AC50 under setting [2] is 29.1 µM [falling, partial curve].
Regarding `CCN1C(=O)[C@H]2[C@@H](c3ccc(-c4ccc(F)cc4)c(OC)c3)N[C@@](CC(C)C)(C(=O)OC)[C@H]2C1=O`, the cell number change is -59.1%. Besides, under setting [1], the concentration at half-maximal activity (AC50) was 23.1 µM [falling, partial curve]. Also, under setting [2], the AC50 was 18.4 µM [falling, single point].
Take `CC(C)NC(=O)CN(c1cccc(Br)c1)S(C)(=O)=O`: the cell number change was -101%. Under setting [1], the AC50 was 20.6 µM [falling, partial curve, poor fit]. Moreover, the AC50 under setting [2] is 16.4 µM [falling, partial curve].

The record behind these values is PubChem BioAssay AID2685 (National Center for Advancing Translational Sciences (NCATS), 2010).
